# The supplement of paper PMC12067093, “Discovery and optimisation of a covalent ligand for TRIM25 and its application to targeted protein ubiquitination” (Chemical Science, 2025)
# Protein sequences, listed by entry. Tags and fused reporters are not part of them. Lines headed by an entry give the natural chain unless they say otherwise; changes in a name come on top.
# UniProt Q9BYI3: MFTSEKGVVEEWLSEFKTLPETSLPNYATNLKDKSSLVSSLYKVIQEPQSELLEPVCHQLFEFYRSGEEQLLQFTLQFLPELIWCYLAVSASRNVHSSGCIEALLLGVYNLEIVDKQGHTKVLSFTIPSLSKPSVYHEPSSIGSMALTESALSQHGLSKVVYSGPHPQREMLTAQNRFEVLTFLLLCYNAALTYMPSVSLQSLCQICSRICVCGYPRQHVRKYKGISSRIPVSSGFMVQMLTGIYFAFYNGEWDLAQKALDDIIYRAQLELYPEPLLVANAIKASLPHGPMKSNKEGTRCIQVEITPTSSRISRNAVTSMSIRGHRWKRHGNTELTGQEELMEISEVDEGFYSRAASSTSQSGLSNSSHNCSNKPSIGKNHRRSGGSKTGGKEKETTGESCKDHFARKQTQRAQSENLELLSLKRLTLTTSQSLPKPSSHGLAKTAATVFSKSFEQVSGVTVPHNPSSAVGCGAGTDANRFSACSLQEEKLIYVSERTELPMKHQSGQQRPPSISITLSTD
# UniProt P49327, whole entry, looked up: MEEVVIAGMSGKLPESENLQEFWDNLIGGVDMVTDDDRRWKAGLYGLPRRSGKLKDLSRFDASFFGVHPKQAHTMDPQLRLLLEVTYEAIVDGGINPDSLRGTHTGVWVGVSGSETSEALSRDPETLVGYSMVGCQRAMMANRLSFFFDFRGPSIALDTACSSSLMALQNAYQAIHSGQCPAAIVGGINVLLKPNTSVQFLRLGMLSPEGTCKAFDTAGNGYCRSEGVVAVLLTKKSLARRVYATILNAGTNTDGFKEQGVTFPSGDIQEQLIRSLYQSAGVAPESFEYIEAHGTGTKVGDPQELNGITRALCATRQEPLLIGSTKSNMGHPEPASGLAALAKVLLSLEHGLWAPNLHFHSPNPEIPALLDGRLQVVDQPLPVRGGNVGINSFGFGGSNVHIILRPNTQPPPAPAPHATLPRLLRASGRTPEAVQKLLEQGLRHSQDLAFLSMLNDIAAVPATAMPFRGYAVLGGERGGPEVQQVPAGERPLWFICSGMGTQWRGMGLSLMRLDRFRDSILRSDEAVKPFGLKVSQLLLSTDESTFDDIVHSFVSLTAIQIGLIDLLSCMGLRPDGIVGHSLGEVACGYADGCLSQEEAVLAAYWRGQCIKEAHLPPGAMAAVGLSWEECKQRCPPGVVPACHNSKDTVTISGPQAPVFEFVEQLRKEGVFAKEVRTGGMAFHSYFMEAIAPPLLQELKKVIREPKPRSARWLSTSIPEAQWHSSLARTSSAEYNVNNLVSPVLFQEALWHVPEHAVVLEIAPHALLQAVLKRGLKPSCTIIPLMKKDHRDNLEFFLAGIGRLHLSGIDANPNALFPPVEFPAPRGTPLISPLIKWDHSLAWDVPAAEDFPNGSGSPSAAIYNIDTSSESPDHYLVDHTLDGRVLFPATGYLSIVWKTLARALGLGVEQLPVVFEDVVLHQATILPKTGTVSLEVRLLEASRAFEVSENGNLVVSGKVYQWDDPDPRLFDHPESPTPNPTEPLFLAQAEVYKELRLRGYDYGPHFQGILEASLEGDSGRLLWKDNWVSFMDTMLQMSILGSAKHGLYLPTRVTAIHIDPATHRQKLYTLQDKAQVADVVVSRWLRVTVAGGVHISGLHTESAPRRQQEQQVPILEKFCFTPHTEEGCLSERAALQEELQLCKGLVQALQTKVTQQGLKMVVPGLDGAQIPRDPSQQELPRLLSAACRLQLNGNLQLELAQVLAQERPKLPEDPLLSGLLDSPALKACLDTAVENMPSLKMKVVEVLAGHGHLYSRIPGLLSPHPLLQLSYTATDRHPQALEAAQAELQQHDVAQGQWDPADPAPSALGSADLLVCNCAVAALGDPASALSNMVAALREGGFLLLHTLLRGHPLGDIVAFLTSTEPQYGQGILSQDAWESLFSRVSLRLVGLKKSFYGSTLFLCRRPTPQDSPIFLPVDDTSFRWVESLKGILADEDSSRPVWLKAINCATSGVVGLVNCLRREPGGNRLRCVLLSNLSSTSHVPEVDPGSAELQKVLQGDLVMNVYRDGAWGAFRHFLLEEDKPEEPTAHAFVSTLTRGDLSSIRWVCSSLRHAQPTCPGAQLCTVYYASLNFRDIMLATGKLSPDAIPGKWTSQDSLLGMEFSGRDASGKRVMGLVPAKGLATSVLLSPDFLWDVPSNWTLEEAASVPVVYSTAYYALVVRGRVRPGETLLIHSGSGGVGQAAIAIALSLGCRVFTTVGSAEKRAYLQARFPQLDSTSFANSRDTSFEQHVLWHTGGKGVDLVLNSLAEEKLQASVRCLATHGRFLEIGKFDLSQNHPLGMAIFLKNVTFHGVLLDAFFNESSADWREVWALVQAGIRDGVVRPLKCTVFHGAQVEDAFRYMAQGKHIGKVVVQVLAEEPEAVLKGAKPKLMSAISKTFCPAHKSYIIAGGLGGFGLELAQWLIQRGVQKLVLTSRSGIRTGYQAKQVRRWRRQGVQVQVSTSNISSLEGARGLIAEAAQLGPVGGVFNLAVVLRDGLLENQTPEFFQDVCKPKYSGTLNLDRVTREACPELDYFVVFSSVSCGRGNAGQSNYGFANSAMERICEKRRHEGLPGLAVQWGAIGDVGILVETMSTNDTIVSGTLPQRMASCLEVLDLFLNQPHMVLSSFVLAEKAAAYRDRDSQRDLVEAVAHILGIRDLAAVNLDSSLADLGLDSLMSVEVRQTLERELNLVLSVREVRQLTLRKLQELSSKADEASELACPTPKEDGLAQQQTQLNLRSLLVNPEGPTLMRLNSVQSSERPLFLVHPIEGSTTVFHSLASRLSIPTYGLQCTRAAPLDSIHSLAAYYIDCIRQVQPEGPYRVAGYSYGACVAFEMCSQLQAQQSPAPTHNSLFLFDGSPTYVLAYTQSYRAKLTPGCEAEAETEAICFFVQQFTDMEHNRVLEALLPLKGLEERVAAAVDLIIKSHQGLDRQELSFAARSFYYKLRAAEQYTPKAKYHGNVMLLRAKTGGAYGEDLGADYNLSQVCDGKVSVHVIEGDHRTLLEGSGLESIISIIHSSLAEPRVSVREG
# UniProt Q8TB52: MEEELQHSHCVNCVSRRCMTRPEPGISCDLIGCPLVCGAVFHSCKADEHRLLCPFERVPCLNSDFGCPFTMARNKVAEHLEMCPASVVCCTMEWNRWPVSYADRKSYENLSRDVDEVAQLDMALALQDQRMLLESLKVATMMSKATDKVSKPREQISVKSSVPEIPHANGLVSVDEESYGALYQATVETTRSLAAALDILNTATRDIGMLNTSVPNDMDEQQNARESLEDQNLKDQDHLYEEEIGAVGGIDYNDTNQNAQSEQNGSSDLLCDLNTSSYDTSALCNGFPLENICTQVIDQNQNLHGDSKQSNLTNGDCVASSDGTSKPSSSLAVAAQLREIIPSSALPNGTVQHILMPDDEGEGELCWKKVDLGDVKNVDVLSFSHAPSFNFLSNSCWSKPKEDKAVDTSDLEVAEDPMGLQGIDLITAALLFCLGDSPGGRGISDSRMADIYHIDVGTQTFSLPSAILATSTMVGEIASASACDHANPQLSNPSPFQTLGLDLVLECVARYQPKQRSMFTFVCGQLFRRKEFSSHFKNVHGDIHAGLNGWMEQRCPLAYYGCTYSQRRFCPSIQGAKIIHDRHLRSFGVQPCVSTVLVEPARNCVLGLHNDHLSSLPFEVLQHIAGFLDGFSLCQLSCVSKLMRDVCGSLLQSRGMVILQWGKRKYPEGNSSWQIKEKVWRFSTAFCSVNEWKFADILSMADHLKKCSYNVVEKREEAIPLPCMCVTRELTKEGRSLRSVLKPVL
# UniProt P22087: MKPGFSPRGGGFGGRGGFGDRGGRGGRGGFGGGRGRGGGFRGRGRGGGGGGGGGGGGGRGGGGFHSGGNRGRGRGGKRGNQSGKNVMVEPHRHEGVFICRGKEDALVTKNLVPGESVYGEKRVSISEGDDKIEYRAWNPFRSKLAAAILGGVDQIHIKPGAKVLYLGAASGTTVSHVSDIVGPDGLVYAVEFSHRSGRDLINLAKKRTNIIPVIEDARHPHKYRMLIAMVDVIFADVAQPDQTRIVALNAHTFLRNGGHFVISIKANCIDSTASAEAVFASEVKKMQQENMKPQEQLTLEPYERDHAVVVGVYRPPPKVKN
# UniProt P09467: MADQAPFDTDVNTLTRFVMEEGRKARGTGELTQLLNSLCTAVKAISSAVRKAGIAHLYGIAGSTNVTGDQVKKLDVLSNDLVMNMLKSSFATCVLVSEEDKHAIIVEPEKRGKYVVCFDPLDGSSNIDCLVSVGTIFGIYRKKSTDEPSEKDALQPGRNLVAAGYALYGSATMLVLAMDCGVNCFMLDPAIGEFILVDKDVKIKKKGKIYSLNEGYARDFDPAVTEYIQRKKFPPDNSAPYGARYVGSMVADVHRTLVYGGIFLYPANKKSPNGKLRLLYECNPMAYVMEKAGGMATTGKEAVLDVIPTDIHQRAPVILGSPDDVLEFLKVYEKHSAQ
# UniProt Q8NEZ5: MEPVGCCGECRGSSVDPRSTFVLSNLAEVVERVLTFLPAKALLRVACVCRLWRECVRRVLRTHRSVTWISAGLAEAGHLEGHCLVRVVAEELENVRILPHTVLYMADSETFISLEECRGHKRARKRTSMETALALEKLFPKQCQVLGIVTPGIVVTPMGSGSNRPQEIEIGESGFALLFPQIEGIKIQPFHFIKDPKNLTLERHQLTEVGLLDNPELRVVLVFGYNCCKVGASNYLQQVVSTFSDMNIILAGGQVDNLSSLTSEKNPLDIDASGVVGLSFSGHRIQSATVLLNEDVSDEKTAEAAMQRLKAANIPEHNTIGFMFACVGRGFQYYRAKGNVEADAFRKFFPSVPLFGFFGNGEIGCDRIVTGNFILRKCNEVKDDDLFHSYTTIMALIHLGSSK
# UniProt Q9UKT5: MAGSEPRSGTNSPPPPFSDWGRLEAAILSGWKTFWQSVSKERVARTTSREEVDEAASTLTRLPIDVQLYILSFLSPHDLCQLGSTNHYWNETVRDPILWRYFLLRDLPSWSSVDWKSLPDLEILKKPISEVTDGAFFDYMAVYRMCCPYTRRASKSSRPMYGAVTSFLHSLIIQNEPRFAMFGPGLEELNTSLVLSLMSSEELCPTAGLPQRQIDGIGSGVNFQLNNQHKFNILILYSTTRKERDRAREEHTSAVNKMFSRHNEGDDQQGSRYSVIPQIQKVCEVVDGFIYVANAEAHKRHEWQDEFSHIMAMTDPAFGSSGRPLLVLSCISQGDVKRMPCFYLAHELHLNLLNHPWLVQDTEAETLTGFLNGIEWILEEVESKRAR
# UniProt P37268: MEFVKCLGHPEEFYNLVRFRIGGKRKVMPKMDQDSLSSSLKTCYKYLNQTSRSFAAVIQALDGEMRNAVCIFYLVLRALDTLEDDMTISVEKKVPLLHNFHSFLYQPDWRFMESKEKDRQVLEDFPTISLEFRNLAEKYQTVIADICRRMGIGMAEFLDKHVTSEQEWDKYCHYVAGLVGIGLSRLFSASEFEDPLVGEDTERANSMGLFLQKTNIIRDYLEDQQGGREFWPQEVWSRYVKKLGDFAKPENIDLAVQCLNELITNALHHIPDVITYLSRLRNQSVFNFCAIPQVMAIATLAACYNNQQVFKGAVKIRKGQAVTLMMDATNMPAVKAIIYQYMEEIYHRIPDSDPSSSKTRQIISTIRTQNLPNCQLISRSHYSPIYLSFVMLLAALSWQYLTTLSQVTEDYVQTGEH
# UniProt Q8IXS8: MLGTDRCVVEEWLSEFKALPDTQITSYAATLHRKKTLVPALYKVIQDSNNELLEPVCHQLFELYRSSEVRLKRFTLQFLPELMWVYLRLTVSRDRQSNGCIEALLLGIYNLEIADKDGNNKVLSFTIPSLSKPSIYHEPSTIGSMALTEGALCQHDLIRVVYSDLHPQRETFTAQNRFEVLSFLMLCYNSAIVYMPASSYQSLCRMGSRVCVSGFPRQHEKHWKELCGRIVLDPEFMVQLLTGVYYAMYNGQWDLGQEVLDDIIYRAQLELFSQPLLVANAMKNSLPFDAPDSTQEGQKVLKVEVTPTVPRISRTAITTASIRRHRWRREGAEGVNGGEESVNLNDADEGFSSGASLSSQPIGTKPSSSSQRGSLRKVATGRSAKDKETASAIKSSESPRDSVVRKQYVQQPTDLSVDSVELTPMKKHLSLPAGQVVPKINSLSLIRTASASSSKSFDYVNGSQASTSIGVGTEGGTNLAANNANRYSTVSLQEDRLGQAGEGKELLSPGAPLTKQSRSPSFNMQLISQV
# Some of the results follow.
# Compound: CC1Cc2ccccc2N1C(=O)C1CCCN(C1)C(=O)CCl (mixture of isomers) [TRIM25 ligand 11 (diastereomer mixture)]
# Test: probe-labelled cysteine peptide fold change vs DMSO (competition) (log2 fold change); higher = less target engagement (more negative = stronger competition)
# Settings: THP-1, incubation time: 4 h
# 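Note: competitive chemoproteomic profiling in live THP-1 cells with an iodoacetamide desthiobiotin (IA-DTB) probe, comparing probe-labelled peptide intensities in compound-treated cells against DMSO-treated controls.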
Target,probe-labelled cysteine peptide fold change (10 µM),probe-labelled cysteine peptide fold change (50 µM)
FBXW5_Q969U6_503_HYNICLAR (UniProt Q969U6),0.0392,0.0765
FASTKD2_Q9NYY8_163_KLSEECNSLSDVLDAFSK (UniProt Q9NYY8),-0.139,0.0616
FAM126A_Q9BYI3_57_VIQEPQSELLEPVCHQLFEFYR (UniProt Q9BYI3),-0.0142,0.114
FASN_P49327_634+642_CPPGVVPACHNSK (UniProt P49327),0.0526,-0.299
FARP2_O94887_155_LTCADTTAALLTSHLLQSEIGDYDETLDREHLK (UniProt O94887),0.112,0.151
FBXO30_Q8TB52_570_FCPSIQGAK (UniProt Q8TB52),0.0884,0.123
FBXL20_Q96IG2_364_HLGNGACAHDQLEVIELDNCPLITDASLEHLK (UniProt Q96IG2),-0.0816,0.115
FBL_P22087_99_NVMVEPHRHEGVFICR (UniProt P22087),-0.0639,-0.088
FBP1_P09467_282_LLYECNPMAYVMEK (UniProt P09467),0.0116,-0.145
FBXO22_Q8NEZ5_365_KFFPSVPLFGFFGNGEIGCDR (UniProt Q8NEZ5),-0.147,0.0467
FBXO4_Q9UKT5_283_VCEVVDGFIYVANAEAHK (UniProt Q9UKT5),0.252,0.166
FDFT1_P37268_172_YCHYVAGLVGIGLSR (UniProt P37268),0.0374,0.156
FASN_P49327_2468_TGGAYGEDLGADYNLSQVCDGK (UniProt P49327),-0.0288,-0.123
FAM126B_Q8IXS8_7_CVVEEWLSEFK (UniProt Q8IXS8),0.0412,-0.14
